From US20230312680A1 come the findings set out here.

One test has as its target HLA-B*07:02 (human). As to the kind of experiment: UV-ligand exchange, b2m ELISA; grade of exchange yield.
The target in the next test is HLA-B*44:02 (human). The description is as above.

No constants are given. Whether binding was seen depends on the method and setting. Binding calls can cover weak binding; strength is not graded here. Ends that are not written are not given here.

With RPRSPAGQVAAA [… (SEQ ID No 377)], the binding entry with HLA-B*07:02 (human) is given as “binds”.

Take NPIGDTGVKF [… (SEQ ID No 374)]: the binding entry with HLA-B*07:02 (human) was “binds”.

Take SPTHVTQSL [… (SEQ ID No 361)]: in the test with HLA-B*07:02 (human), the binding result is “binds”.

Consider TPLATTQRFTY [… (SEQ ID No 365)], for which the binding entry in the test with HLA-B*07:02 (human) is listed as “binds”.

Take NPDLRRNVL [… (SEQ ID No 390)]: the binding result with HLA-B*07:02 (human) is “binds”.

For the molecule GEMEQKQL [GEMEQKQL (SEQ ID No 58)], the binding entry in the test with HLA-B*44:02 (human) is “binds”.

Take AEATARLNVF [… (SEQ ID No 174)]: the binding result in the test with HLA-B*44:02 (human) is reported as “binds”.

For the molecule TAKTPDATF [… (SEQ ID No 363)], in the test with HLA-B*07:02 (human), the binding result is reported as “binds”.

In the case of AERQPGAASL [… (SEQ ID No 185)], in the test with HLA-B*44:02 (human), the binding result is recorded as “binds”.

For TEVGTMNLF [… (SEQ ID No 177)], the binding entry in the test with HLA-B*44:02 (human) is on record as “binds”.

Consider SPSTIKLTM [… (SEQ ID No 359)], for which the binding entry with HLA-B*07:02 (human) is “binds”.

Regarding NELFRDGVNW [… (SEQ ID No 178)], the binding result in the test with HLA-B*44:02 (human) was “binds”.

In the case of GEGPKTSW [GEGPKTSW (SEQ ID No 181)], the binding entry with HLA-B*44:02 (human) is on record as “binds”.

Regarding RPRSPAGQVA [… (SEQ ID No 376)], the binding result in the test with HLA-B*07:02 (human) is given as “binds”.

Turning to SPVPVTSLF [… (SEQ ID No 362)], the binding entry with HLA-B*07:02 (human) is “binds”.

Turning to TPTKETVSL [… (SEQ ID No 383)], the binding result in the test with HLA-B*07:02 (human) was “binds”.

Regarding SPSVSSNTY [… (SEQ ID No 360)], the binding entry with HLA-B*07:02 (human) was “binds”.

Take MEHPGKLLF [… (SEQ ID No 53)]: the binding result in the test with HLA-B*44:02 (human) was “binds”.

Consider RPRALRDLRIL [… (SEQ ID No 373)], for which the binding result with HLA-B*07:02 (human) is listed as “binds”.

Consider REAGDEFEL [… (SEQ ID No 179)], for which the binding result with HLA-B*44:02 (human) is “binds”.

REGPEEPGL [… (SEQ ID No 186)]: the binding entry with HLA-B*44:02 (human) is on record as “binds”.

LPEQTPLAF [… (SEQ ID No 381)]: the binding result in the test with HLA-B*07:02 (human) is given as “binds”.

As to LYVDGFTHW [… (SEQ ID No 371)], the binding result with HLA-B*07:02 (human) is “binds”.

Take IPTYGRTF [IPTYGRTF (SEQ ID No 380)]: the binding result with HLA-B*07:02 (human) is given as “binds”.

Turning to AELEALTDLW [… (SEQ ID No 184)], in the test with HLA-B*44:02 (human), the binding result is “binds”.

With YEFKFPNRL [… (SEQ ID No 192)], the binding entry with HLA-B*44:02 (human) was “binds”.

With KPIESTLVA [… (SEQ ID No 392)], the binding entry with HLA-B*07:02 (human) was “binds”.

On to KEATEAQSL [… (SEQ ID No 182)], for which the binding result with HLA-B*44:02 (human) is “binds”.

In the case of AEFLLRIFL [… (SEQ ID No 52)], the binding entry with HLA-B*44:02 (human) was “binds”.

On to PGGTRQSL [PGGTRQSL (SEQ ID No 370)], for which the binding entry with HLA-B*07:02 (human) is recorded as “binds”.

Turning to REAGDEFELRY [… (SEQ ID No 180)], the binding entry with HLA-B*44:02 (human) is “binds”.

Consider GEAQTRIAW [… (SEQ ID No 187)], for which, in the test with HLA-B*44:02 (human), the binding result is “binds”.

For EEDAALFKAW [… (SEQ ID No 191)], the binding entry with HLA-B*44:02 (human) is listed as “binds”.

Turning to SPGAQRTFFQL [… (SEQ ID No 389)], the binding result with HLA-B*07:02 (human) was “binds”.

As to YPGLRGSPM [… (SEQ ID No 384)], in the test with HLA-B*07:02 (human), the binding result is “binds”.

YEKGIMQKV [… (SEQ ID No 183)]: the binding entry in the test with HLA-B*44:02 (human) was “binds”.

For the molecule AAASPLLLL [… (SEQ ID No 375)], the binding entry with HLA-B*07:02 (human) was “binds”.

For the molecule APSTPRITTF [… (SEQ ID No 391)], the binding entry in the test with HLA-B*07:02 (human) is “binds”.

Consider SPALHIGSV [… (SEQ ID No 385)], for which, in the test with HLA-B*07:02 (human), the binding result is on record as “binds”.

For the molecule FPFNPLDF [FPFNPLDF (SEQ ID No 386)], the binding result in the test with HLA-B*07:02 (human) was “binds”.

On to GPFPLVYVL [… (SEQ ID No 379)], for which, in the test with HLA-B*07:02 (human), the binding entry is “binds”.

For AEIEPKADG [… (SEQ ID No 175)], in the test with HLA-B*44:02 (human), the binding entry is listed as “binds”.

In the case of HETETRTTW [… (SEQ ID No 55)], the binding entry in the test with HLA-B*44:02 (human) is listed as “binds”.

As to TPLATTQRF [… (SEQ ID No 364)], the binding entry with HLA-B*07:02 (human) is recorded as “binds”.

With SPSPVPTTL [… (SEQ ID No 357)], the binding entry with HLA-B*07:02 (human) is recorded as “binds”.

Turning to SENVTMKVV [… (SEQ ID No 59)], the binding result with HLA-B*44:02 (human) is recorded as “binds”.

As for AEITITTQTGY [… (SEQ ID No 54)], the binding result in the test with HLA-B*44:02 (human) is “binds”.

For QESDLRLFL [… (SEQ ID No 57)], the binding result in the test with HLA-B*44:02 (human) is listed as “binds”.

For the molecule KEFLFNMY [KEFLFNMY (SEQ ID No 189)], the binding entry with HLA-B*44:02 (human) is “binds”.

For the molecule SPLVTSHIM [… (SEQ ID No 355)], the binding entry in the test with HLA-B*07:02 (human) is listed as “binds”.

Consider IPRNPPPTLL [… (SEQ ID No 372)], for which the binding result with HLA-B*07:02 (human) is listed as “binds”.

For AEFAKKQPWW [… (SEQ ID No 188)], the binding result in the test with HLA-B*44:02 (human) is on record as “binds”.

Take NVLTSTPAF [… (SEQ ID No 351)]: the binding result with HLA-B*07:02 (human) is “binds”.

Take SPAPLKLSRTPA [… (SEQ ID No 388)]: the binding result with HLA-B*07:02 (human) is “binds”.

In the case of SPSPVTSTL [… (SEQ ID No 358)], in the test with HLA-B*07:02 (human), the binding entry was “binds”.

In the case of AEAQVGDERDY [… (SEQ ID No 173)], the binding result in the test with HLA-B*44:02 (human) is “binds”.

Take SPAETSTNM [… (SEQ ID No 352)]: the binding entry in the test with HLA-B*07:02 (human) is listed as “binds”.

RPRSPAGQVAA [… (SEQ ID No 378)]: the binding result with HLA-B*07:02 (human) was “binds”.

Turning to APLKLSRTPA [… (SEQ ID No 387)], the binding result with HLA-B*07:02 (human) is reported as “binds”.

VPTPVFPTM [… (SEQ ID No 368)]: the binding result with HLA-B*07:02 (human) is given as “binds”.

As for SEPDTTASW [… (SEQ ID No 56)], in the test with HLA-B*44:02 (human), the binding result was “binds”.

Consider FPHSEMTTV [… (SEQ ID No 369)], for which the binding entry with HLA-B*07:02 (human) is listed as “binds”.

Take SPAMTTPSL [… (SEQ ID No 353)]: the binding entry in the test with HLA-B*07:02 (human) is given as “binds”.

On to TPSVVTEGF [… (SEQ ID No 367)], for which, in the test with HLA-B*07:02 (human), the binding result was “binds”.

For SPNEFYFTV [… (SEQ ID No 356)], the binding entry with HLA-B*07:02 (human) is reported as “binds”.

With SPLPVTSLL [… (SEQ ID No 354)], in the test with HLA-B*07:02 (human), the binding result is listed as “binds”.

Consider AEIEPKADGSW [… (SEQ ID No 176)], for which the binding result with HLA-B*44:02 (human) is given as “binds”.

On to SPMHDRWTF [… (SEQ ID No 382)], for which the binding entry with HLA-B*07:02 (human) is reported as “binds”.

With YEVARILNL [… (SEQ ID No 190)], the binding entry with HLA-B*44:02 (human) is “binds”.
